No constants are given. Whether binding was seen depends on the method and setting. In cells and extracts the contact can be indirect. Some results given as binding are weak or reduced against the parent protein; the word gives no strength. For some assays here: Where a sequence is shown, tags or fusion partners need not be part of it.
T1: Dvl2-Flag (Dishevelled-2, Flag-tagged) (UniProt Q60838)
T1 sequence: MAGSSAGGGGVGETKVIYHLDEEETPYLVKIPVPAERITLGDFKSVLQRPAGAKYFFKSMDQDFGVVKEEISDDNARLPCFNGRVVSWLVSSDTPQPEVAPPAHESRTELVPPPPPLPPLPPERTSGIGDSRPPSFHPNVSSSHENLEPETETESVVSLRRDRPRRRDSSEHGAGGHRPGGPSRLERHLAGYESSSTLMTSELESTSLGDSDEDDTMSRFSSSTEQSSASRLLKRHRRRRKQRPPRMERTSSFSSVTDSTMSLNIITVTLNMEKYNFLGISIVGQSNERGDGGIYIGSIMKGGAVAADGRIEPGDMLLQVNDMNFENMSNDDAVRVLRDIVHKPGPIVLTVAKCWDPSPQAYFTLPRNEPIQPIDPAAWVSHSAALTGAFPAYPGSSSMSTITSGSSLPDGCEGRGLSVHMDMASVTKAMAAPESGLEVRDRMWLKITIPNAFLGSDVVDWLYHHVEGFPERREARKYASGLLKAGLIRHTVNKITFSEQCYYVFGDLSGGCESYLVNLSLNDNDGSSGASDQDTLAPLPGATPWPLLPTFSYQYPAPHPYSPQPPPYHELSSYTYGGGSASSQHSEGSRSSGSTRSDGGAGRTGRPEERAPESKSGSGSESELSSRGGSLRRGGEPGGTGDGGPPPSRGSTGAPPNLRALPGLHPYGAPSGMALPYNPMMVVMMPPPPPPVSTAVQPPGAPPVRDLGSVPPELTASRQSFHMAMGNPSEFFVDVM

T2: Dishevelled-2 (Dvl2), endogenous (mouse (endogenous in primary myoblasts)) (UniProt Q60838)
T2 sequence: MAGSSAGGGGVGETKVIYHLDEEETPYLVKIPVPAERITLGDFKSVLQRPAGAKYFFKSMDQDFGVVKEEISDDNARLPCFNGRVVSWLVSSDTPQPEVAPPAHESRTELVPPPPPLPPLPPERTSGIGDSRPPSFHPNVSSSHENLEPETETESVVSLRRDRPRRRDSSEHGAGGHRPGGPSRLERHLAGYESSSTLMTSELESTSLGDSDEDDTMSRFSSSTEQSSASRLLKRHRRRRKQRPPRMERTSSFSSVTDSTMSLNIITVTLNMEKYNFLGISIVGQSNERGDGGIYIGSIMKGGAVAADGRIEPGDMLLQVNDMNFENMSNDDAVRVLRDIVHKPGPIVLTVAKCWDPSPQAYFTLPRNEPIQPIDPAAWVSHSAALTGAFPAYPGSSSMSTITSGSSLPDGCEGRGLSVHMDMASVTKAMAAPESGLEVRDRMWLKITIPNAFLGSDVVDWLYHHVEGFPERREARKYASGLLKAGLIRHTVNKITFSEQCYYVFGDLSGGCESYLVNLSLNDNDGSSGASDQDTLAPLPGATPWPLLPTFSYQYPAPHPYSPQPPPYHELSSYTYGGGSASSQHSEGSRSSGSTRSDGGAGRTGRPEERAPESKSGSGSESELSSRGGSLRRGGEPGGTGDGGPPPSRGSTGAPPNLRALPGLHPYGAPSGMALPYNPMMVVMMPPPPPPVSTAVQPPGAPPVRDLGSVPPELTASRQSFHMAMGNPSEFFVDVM


Assays:
[1] = molecular target: T1, Dvl2-Flag (Dishevelled-2, Flag-tagged); assay: co-IP; reciprocal co-IP from HEK293T cells co-transfected with Islr-GFP and Dvl2-Flag; IP lysis buffer; precipitated with Flag or GFP antibody and protein G beads; washed three times; Western blot
[2] = molecular target: T2, Dishevelled-2 (Dvl2), endogenous (mouse (endogenous in primary myoblasts)); assay: co-IP; reciprocal co-IP of endogenous Islr and Dvl2 from primary myoblasts cultured for 4 d in differentiation medium; Western blot

binding [1]	binding [2]	Binder
binds		Islr-GFP (immunoglobulin superfamily containing leucine-rich repeat, GFP-tagged) (protein, UniProt Q6GU68 19-428) CPEPCDCGEKYGFQIADCAYRDLEGVPPGFPANVTTLSLSANRLPGLPEGAFREVPLLQSLWLAHNEIRSVAIGALAPLSHLKSLDLSHNLLSEFAWSDLHNLSALQLLKMDSNELAFIPRDAFSSLSALRSLQLNHNRLHALAEGTFAPLTALSHLQINDNPFDCTCGIVWFKTWALASAVSIPEQDNIACTTPHVLKGIPLGRLPPLPCSAPSVQLSYQPSQDGAELRPGFVLALHCDVDGQPVPQLHWHIHTPGGTVEIASPNVGTDGRALPGALATSGQPRFQAFANGSLLIPDFGKLEEGTYSCLATNELGSAESSVNVALATPGEGGEDAVGHKFHGKAVEGKGCYTVDNEVQPSGPEDNVVIIYLSRAGPPEAAIAADGRPAQQFSGILLLGQSLLVLSFFYF
	binds	Islr (immunoglobulin superfamily containing leucine-rich repeat), endogenous (protein, UniProt Q6GU68 19-428) CPEPCDCGEKYGFQIADCAYRDLEGVPPGFPANVTTLSLSANRLPGLPEGAFREVPLLQSLWLAHNEIRSVAIGALAPLSHLKSLDLSHNLLSEFAWSDLHNLSALQLLKMDSNELAFIPRDAFSSLSALRSLQLNHNRLHALAEGTFAPLTALSHLQINDNPFDCTCGIVWFKTWALASAVSIPEQDNIACTTPHVLKGIPLGRLPPLPCSAPSVQLSYQPSQDGAELRPGFVLALHCDVDGQPVPQLHWHIHTPGGTVEIASPNVGTDGRALPGALATSGQPRFQAFANGSLLIPDFGKLEEGTYSCLATNELGSAESSVNVALATPGEGGEDAVGHKFHGKAVEGKGCYTVDNEVQPSGPEDNVVIIYLSRAGPPEAAIAADGRPAQQFSGILLLGQSLLVLSFFYF

From paper PMC6277414
